From the supplement of paper PMC10849652 come the findings set out here.

Chains of the proteins cited; added tags and fusions are not shown. Lines headed by an entry give the natural chain unless they say otherwise; changes in a name come on top.
UniProt Q9H6S3: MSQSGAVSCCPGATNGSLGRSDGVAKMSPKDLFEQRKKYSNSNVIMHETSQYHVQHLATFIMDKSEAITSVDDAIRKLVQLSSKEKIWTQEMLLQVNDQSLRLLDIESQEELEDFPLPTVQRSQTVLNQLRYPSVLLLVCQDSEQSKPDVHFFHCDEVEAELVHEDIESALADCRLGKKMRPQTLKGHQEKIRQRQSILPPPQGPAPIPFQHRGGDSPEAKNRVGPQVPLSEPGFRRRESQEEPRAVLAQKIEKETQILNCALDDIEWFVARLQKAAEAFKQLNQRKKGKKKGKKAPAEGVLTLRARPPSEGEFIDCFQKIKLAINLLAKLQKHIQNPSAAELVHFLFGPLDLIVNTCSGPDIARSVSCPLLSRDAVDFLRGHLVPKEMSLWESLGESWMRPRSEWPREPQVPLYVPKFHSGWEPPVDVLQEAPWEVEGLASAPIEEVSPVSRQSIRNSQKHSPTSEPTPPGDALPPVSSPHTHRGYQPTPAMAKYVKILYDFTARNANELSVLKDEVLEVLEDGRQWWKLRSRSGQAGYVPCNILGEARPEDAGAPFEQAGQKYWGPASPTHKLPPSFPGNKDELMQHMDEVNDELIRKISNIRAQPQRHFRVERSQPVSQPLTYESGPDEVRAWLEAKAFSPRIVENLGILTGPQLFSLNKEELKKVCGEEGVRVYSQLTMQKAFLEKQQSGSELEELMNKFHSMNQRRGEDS
UniProt P0DP91, whole entry, looked up: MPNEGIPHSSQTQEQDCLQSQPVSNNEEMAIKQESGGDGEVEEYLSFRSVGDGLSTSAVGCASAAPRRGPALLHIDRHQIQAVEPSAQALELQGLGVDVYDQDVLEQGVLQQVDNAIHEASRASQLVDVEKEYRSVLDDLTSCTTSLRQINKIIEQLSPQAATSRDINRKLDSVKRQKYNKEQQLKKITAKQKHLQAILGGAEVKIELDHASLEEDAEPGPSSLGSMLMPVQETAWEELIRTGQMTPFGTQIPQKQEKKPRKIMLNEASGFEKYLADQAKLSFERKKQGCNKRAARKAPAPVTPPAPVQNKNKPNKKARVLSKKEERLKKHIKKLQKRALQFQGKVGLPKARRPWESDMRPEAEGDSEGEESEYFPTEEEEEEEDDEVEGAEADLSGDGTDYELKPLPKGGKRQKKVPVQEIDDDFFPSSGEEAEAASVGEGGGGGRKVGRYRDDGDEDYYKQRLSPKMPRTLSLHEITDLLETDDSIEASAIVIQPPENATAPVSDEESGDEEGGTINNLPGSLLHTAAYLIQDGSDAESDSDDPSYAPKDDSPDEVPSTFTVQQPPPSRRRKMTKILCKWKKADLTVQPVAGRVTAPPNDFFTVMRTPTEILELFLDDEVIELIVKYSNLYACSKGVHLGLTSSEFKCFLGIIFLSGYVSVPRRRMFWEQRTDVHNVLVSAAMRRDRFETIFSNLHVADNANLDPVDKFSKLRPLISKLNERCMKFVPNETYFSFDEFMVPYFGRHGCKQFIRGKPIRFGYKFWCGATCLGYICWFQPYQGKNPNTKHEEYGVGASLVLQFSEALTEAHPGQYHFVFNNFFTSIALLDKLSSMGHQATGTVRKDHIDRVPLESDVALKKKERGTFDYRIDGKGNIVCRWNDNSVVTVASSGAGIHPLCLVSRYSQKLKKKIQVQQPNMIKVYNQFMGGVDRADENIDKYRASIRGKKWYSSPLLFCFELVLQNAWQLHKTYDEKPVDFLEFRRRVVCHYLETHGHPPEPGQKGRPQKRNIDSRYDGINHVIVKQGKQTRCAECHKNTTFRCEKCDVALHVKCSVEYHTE
UniProt Q9UKR5: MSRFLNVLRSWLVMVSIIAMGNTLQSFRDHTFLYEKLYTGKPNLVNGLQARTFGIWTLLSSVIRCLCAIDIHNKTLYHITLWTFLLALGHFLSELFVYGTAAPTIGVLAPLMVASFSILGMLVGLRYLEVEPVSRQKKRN
UniProt Q96C92: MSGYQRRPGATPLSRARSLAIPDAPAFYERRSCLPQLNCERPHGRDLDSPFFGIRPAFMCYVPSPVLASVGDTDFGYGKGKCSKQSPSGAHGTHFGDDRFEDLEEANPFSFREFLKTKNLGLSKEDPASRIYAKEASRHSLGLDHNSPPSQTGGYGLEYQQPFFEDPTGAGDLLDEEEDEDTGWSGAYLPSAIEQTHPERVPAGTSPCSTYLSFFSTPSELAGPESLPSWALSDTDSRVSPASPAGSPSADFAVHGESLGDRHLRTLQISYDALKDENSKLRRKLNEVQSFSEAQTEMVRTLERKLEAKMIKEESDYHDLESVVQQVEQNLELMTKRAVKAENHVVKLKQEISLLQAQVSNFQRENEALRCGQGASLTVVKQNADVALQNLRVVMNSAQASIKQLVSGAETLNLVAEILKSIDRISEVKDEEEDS
UniProt Q9H777: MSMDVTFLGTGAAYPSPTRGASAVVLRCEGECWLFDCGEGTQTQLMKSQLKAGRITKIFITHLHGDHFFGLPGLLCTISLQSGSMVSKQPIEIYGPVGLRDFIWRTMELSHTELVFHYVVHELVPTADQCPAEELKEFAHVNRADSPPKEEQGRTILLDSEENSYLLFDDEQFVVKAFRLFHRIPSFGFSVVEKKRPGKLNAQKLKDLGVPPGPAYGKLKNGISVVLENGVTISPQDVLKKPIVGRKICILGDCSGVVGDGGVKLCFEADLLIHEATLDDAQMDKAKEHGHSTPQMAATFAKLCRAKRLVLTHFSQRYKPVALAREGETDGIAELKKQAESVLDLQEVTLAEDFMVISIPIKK
UniProt O75822, whole entry, looked up: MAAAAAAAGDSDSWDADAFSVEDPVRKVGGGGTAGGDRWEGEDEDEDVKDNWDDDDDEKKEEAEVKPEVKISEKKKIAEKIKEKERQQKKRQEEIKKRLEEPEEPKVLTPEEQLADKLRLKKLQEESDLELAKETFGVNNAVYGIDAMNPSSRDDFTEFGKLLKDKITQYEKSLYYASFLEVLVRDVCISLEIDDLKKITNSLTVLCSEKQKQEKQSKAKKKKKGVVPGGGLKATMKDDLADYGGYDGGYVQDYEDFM
UniProt Q9HCE0: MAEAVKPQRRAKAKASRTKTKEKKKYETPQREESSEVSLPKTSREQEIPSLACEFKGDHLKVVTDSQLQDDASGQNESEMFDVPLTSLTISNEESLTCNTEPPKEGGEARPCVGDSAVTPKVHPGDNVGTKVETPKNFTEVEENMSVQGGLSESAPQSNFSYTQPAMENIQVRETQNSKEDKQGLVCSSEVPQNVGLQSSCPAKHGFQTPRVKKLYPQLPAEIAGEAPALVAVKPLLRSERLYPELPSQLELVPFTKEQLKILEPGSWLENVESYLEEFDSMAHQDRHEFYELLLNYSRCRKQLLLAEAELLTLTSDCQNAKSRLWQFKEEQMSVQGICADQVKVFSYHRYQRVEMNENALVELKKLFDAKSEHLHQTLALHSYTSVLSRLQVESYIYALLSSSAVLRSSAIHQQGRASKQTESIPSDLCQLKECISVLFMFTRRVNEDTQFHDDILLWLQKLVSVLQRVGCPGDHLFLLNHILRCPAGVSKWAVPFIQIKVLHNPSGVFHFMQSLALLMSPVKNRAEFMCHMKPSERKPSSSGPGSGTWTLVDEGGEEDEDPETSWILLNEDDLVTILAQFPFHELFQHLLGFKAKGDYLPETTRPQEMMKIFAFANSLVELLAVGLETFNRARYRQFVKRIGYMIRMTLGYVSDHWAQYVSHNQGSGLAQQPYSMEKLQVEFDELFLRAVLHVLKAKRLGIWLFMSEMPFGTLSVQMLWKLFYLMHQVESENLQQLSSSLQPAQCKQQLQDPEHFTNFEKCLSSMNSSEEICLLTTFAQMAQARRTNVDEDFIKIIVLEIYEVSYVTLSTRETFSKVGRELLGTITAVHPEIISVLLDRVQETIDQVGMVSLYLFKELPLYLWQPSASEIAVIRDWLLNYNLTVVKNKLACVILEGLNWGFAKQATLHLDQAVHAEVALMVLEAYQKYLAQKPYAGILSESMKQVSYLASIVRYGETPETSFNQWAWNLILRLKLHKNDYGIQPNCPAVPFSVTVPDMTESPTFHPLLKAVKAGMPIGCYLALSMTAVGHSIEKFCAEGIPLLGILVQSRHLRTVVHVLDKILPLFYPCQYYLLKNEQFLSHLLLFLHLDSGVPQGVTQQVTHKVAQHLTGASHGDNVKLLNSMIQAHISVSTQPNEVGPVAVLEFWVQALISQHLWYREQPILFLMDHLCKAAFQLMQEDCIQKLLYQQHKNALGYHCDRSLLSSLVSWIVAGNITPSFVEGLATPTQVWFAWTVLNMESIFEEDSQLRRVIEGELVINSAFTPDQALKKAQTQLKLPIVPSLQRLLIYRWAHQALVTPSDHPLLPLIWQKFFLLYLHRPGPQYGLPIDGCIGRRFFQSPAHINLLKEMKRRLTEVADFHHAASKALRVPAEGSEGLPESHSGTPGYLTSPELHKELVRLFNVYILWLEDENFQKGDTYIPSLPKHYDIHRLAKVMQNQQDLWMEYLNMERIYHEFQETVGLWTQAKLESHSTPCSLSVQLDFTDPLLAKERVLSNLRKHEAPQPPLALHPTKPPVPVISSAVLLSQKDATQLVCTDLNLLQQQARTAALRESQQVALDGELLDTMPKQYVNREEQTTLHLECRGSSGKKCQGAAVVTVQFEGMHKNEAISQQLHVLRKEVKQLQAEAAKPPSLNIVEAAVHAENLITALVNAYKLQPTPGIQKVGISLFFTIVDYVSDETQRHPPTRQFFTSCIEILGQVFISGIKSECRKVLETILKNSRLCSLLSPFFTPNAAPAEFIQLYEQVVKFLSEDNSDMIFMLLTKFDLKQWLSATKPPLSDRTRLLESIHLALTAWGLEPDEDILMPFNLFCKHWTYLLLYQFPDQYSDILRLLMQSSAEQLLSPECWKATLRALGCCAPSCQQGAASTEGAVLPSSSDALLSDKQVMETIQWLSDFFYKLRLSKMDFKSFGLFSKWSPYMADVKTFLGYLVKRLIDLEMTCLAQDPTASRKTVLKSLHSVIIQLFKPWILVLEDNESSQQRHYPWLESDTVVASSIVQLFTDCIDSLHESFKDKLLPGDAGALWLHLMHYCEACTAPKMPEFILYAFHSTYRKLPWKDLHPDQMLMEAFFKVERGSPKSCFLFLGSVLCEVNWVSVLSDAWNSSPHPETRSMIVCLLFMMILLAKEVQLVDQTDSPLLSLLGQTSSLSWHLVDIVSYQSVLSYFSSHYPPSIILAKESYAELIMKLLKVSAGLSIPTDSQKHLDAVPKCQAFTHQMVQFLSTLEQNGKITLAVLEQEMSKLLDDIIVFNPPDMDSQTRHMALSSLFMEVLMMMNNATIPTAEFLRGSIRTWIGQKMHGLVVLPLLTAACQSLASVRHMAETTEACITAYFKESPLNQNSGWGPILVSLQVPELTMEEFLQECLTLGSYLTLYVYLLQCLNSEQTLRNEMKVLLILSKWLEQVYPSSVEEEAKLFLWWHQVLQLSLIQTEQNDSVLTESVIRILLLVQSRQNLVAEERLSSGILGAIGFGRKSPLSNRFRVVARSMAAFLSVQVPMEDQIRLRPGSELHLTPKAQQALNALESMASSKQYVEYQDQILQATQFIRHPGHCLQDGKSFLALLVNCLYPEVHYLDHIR
UniProt O15197: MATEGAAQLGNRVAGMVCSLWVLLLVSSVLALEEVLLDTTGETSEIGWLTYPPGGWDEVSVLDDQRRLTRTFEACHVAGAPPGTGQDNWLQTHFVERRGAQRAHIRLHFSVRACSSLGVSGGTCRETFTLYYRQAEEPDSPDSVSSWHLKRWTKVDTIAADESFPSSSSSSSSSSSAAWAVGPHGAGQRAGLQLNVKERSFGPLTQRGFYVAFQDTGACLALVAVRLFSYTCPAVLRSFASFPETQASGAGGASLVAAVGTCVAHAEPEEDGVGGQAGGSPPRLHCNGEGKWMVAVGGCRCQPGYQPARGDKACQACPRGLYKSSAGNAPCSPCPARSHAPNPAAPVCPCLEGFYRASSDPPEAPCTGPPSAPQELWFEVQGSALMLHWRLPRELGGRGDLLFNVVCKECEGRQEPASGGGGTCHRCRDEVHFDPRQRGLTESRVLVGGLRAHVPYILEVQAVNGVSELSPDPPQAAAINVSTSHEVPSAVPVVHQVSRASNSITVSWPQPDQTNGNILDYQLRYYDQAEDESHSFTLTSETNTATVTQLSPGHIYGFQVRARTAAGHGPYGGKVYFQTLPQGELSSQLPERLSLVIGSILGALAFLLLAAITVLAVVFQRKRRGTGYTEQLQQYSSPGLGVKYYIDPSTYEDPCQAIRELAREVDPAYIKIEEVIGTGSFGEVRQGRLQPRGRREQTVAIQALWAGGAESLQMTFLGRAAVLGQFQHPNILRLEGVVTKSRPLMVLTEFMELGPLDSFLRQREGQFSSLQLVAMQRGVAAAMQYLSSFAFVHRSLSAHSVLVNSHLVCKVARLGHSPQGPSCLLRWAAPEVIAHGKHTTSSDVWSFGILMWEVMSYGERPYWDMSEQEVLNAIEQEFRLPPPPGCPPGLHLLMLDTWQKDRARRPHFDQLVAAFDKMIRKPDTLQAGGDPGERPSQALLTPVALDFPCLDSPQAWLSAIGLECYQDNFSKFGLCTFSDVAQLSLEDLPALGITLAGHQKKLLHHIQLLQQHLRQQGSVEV

Some of the results follow.

Compound in this test: c1cn2cc(-c3ccc4cn[nH]c4c3)nc(Nc3ccc(N4CCOCC4)cc3)c2n1 [entospletinib]
The test can be described thus: log2 fold change, soluble protein after heating vs DMSO (PISA); higher = thermal stabilisation; K562 lysate, 10 uM; active = over 0.2 and 3.5 SD of the protein, either way, in both replicates (recomputed). An outline of the steps:
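Thermal stability, expressed as log-two fold change relative to solvent controls, is given from duplicates. Crude K562 extract in PBS pH 7.4 with 1 mM MgCl2, at 1 mg/mL protein, was treated with 10 μM compound for 30 min and heated in aliquots for 3 min across 48°C-58°C. After pooling, adjustment to 0.5% NP-40 at 4°C and centrifugation at 21,000xg for 90 min, supernatant protein was measured by TMTpro 16plex LC-MS/MS with channel sums equalised.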
In the case of EPB41, A0A2R8Y783, the log2 fold change was inactive: 0.393.

On to EPS8L2 (UniProt Q9H6S3), for which the log2 fold change was active: 0.33.

In the case of ERCC6 (UniProt P0DP91), the log2 fold change is inactive: 0.078.

On to ELK1 (UniProt P19419), for which the log2 fold change was inactive: -0.092.

As for ERG28 (UniProt Q9UKR5), the log2 fold change is inactive: 0.009.

In the case of EME1 isoform 2 (UniProt Q96AY2), the log2 fold change is inactive: 0.

ENTR1 (UniProt Q96C92): the log2 fold change is inactive: 0.188.

Consider ERAP2 (UniProt Q6P179), for which the log2 fold change was inactive: 0.002.

Turning to ELAC1 (UniProt Q9H777), the log2 fold change is inactive: 0.

With EIF3J isoform 2 (UniProt O75822), the log2 fold change was inactive: 0.017.

Regarding EPG5 (UniProt Q9HCE0), the log2 fold change is inactive: 0.077.

In the case of EPHB6 (UniProt O15197), the log2 fold change is inactive: -0.022.

For the target ENTPD7 (UniProt Q9NQZ7), the log2 fold change is inactive: -0.074.

In the case of EPS15L1 (UniProt M0QY01), the log2 fold change is inactive: 0.

Regarding ERCC6 (UniProt Q03468), the log2 fold change is inactive: -0.045.

Turning to EPC2 (UniProt Q52LR7), the log2 fold change is inactive: -0.033.

For the target ELOVL5 isoform 2 (UniProt Q9NYP7), the log2 fold change was inactive: -0.005.

Turning to EPS8L1 (UniProt Q8TE68), the log2 fold change is inactive: -0.035.

EPB41L5 (UniProt Q9HCM4): the log2 fold change is inactive: 0.144.

EIF4A1 (UniProt J3KS25): the log2 fold change was inactive: -0.063.
